Source: article PMC11926231
Results are given in words; binding and its absence hold for the method and conditions named. Binding seen in cells or lysates may run through a third protein. Tags and fused reporters may be left off the sequences shown.

Target: T1, GST-PER2 (human) (UniProt O15055)
T1 sequence: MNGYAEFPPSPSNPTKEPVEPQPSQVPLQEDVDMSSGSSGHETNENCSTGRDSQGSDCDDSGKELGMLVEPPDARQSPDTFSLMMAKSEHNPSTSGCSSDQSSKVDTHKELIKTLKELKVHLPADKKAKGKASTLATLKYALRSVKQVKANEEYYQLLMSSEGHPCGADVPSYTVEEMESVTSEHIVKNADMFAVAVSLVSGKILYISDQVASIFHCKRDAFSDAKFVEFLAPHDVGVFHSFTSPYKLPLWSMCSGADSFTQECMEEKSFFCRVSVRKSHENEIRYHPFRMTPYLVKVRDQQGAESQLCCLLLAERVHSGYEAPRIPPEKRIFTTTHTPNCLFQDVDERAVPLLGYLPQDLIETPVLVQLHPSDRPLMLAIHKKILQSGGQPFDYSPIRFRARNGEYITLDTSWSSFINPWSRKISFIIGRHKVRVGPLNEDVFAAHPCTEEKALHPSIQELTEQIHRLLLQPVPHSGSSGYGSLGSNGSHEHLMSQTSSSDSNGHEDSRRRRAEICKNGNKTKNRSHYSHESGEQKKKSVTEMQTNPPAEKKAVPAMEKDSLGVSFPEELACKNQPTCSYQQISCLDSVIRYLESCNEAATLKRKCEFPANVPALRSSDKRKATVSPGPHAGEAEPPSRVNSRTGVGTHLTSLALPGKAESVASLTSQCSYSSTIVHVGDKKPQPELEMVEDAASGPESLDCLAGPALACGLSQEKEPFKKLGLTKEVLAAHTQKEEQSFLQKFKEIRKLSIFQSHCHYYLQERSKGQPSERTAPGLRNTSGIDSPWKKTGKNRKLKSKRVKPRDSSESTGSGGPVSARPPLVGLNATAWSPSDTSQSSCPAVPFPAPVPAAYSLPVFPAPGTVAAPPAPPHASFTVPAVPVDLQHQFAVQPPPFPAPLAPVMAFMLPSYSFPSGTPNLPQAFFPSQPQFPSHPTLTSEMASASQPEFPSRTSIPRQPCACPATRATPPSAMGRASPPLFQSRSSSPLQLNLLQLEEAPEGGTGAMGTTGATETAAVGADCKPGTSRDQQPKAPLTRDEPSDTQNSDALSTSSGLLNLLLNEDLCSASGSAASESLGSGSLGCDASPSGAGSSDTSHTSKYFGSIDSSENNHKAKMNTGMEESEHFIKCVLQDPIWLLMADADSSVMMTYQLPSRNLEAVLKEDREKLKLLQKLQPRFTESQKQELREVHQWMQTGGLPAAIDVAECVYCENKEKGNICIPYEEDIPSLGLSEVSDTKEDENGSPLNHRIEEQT
Experiment: pull-down; GST-PER2 or GST-HSP70 captured on glutathione agarose from bacterial lysates (1 h, 4 °C); about 100 µg fusion protein incubated with the target proteins for 4 h in vitro; eluted with glutathione, western blot (Pierce GST Protein Interaction Pull-down Kit)

binding: no binding
Substance: AKT, target protein of the GST pull-down
